In patent EP3233210B1, “TRIPEPTIDES, COMPOSITIONS THEREOF AND THEIR COSMETIC USES” (Sederma, priority 2014, dated 2020):
At least one peptide structure holds a part that was inferred or is arguable (an end, a ring closure or a residue). Where a SMILES comes first, the peptide text is derived from it. The star is where a group is joined. Palmitoyl = CCCCCCCCCCCCCCCC(=O)*

What was measured:
Format in all cases: cell-based
[1] = test system: Collagen I; experiment: ELISA assay of collagen I synthesis by normal human fibroblasts; conditions: NHF, 72 hours
[2] = test system: Elastin; experiment: Immunofluorescence assay of elastin on normal human fibroblasts; conditions: NHF, 14 days, 3 ppm
[3] = test system: Collagen IV; experiment: Immunofluorescence assay of collagen IV on normal human fibroblasts; conditions: NHF
[4] = test system: Hyaluronic acid; experiment: Immunofluorescence assay of hyaluronic acid on normal human fibroblasts; conditions: NHF
[5] = test system: Elastin; experiment: ELISA assay of elastin synthesis by normal human fibroblasts; conditions: NHF, 72 hours

Row | Structure (SMILES) | Change % / control ([1]; 3 ppm) | Change % / control ([1]; 7 ppm) | Change % / control [2] | Change % / control ([3]; 3 ppm) | Change % / control ([3]; 7 ppm) | Change % / control ([3]; concentration not given) | Change % / control ([4]; 3 ppm) | Change % / control ([4]; 7 ppm) | Change % / control ([5]; 3 ppm) | Change % / control ([5]; 7 ppm)
1 | CCCCCCCCCCCCCCCC(=O)N[C@@H](CCCCN)C(=O)NCC(=O)N[C@@H](Cc1c[nH]cn1)C(=O)O [Pal-KGH-OH, palmitoyl-lysyl-glycyl-histidine] (Palmitoyl-Lys-Gly-His-OH) | +69% | +123% | +82.8% | +323.7% | +274.4% | +259.5% | +37.6% | +42.2% |  | 
2 | CCCCCCCCCCCCCCCC(=O)N[C@@H](CCCCN)C(=O)N[C@@H](Cc1c[nH]cn1)C(=O)NCC(=O)O [Pal-KHG-OH] (Palmitoyl-Lys-His-Gly-OH) | +66% | +116% |  |  |  |  |  |  | +139% | +113%
